“And” between values parts separate entries of the source, which are not always exact repeats. Identical values can stand only once. Among all 400,000 compounds or so, about 3,700 (0.93%) were called active. This list was built around the results that the source calls inconclusive (neither active nor inactive); the mix of calls is not that of the screen. Calls come from the whole dose curve; as a rule, active = well fitted inhibition curve with a large enough effect; inconclusive = small, poorly fitted or top-dose-only effect, or another doubt; inactive = no such curve, though single readings can be large or run the other way. Potencies of inconclusive entries are doubtful fits and often do not repeat.
target: Vitamin D3 receptor (Homo sapiens) (UniProt P11473); test: Inhibitors of the vitamin D receptor (VDR): qHTS; conditions: VDR-SRC2-3 peptide fluorescence polarization, 2 h; max response, negative = inhibition: active compounds read low
Summary of the method: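 After 23 nl compound addition and a short centrifugation, plates sat for 2 hours at ambient temperature; polarization of fluorescence then indicated loss of VDR binding to peptide SRC2-3.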
% is set by controls: 0 for no effect and ±100 for the full control effect; potency is the fitted concentration of half-maximal effect.

By UniProt entry, the sequences of proteins in these tests, tags left out. Where a name states a change or a piece, a line headed by the entry shows the natural chain unless it says otherwise.
UniProt P11473: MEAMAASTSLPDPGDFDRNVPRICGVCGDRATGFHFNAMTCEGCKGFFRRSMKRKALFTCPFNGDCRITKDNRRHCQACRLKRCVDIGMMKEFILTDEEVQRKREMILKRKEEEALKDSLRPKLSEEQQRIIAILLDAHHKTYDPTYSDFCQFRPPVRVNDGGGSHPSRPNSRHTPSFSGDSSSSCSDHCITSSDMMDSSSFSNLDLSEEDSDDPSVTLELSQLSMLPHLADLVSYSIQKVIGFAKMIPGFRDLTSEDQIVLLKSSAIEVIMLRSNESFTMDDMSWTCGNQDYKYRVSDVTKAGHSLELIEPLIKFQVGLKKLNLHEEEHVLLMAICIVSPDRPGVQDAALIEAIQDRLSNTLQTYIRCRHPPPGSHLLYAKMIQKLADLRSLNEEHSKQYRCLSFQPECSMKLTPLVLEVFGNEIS

SMILES	Potency	max response, negative = inhibition
Cc1cc(NS(=O)(=O)c2ccc(NC(=S)Nc3ccc(Cl)cc3C)cc2)no1	inconclusive: 89.1 µM [inhibitor, single point]	
O=c1cc(-c2ccc(O)cc2)oc2ccc3ccccc3c12		inactive: 4.01%
O=C(Nc1nc(-c2cc3ccccc3oc2=O)cs1)c1ccco1		inactive: 4.98%
Cc1nc(C(N)=O)c(N)n1CCc1ccccc1	active: 44.7 µM	
Cn1cnc2c1c(=O)n(Cc1ccc(F)cc1Cl)c(=O)n2C		inactive: -0.202%
O=C(Nc1ccccc1)Nc1ccccc1C(=O)NCC1CC1	inconclusive: 79.4 µM [inhibitor, partial curve, poor fit]	
Cc1ccc(NC(=O)OC(C)CNC(=O)Oc2cccc(C)c2)cc1 (stereo not given)		inactive: -14.1%
CCOc1ccc(C(CC(=O)O)NC(=O)Cc2ccc(Cl)cc2)cc1 (stereo not given)		inactive: 3.72%
CCN(CC)S(=O)(=O)c1ccc(N2CCOCC2)c(NS(=O)(=O)c2cc(C(C)(C)C)ccc2C)c1	inconclusive: 100 µM [inhibitor, single point]	
NC(=S)NNC(=O)Nc1ccc(Cl)c(Cl)c1	inconclusive: 100 µM [inhibitor, partial curve, poor fit]	
O=C(CCS(=O)(=O)c1ccc(Br)cc1)Nc1ccccn1		inactive: -17.8%
COC(=O)C(=N/Nc1ccccc1C(=O)OC)/C(C)=N/O		inactive: -3.08%
Cn1c(SCC(=O)NNC(=O)Cc2ccccc2)nc2ccccc2c1=O	inconclusive: 39.8 µM [inhibitor, single point]	
CN(C)c1ccc(-c2nc(N(C)Cc3ccco3)c3ccccc3n2)cc1	inconclusive: 44.7 µM [inhibitor, partial curve, poor fit]	
COc1ccc(/C=C2\SC(N3CCCCC3)=NC2=O)cc1		inactive: -4.34%
N#Cc1cc2c(ccc3ccccc32)oc1=O	inconclusive: 20 µM [inhibitor, partial curve, poor fit]	
O=C(/C=C\c1ccco1)Nc1ccc(N2CCN(C(=O)c3ccccc3)CC2)cc1	inconclusive: 89.1 µM [inhibitor, single point]	
C/C(=N\NS(=O)(=O)c1ccc(Cl)c([N+](=O)[O-])c1)c1ccc(C)o1	inconclusive: 79.4 µM [inhibitor, single point]	
CC(=O)c1ccc(OCc2cc(C(=O)N(C)Cc3ccon3)no2)cc1		inactive: -6.21%
CN(C(=S)Nc1ccc(Oc2ccccc2)cc1)c1ccc(O)cc1	inconclusive: 56.2 µM [inhibitor, partial curve, poor fit]	
CC1Cc2ccccc2N1C(=O)CSC1=NCCS1 (stereo not given)	active: 70.8 µM	
Cc1cccc2cc(CN(Cc3cccnc3)C(=S)NCCCN(C)C)c(=O)[nH]c12	inconclusive: 70.8 µM [inhibitor, partial curve, poor fit]	

SMILES	Potency	max response, negative = inhibition
Cc1ccc(S(=O)(=O)N2[C@@H](c3ccc(C#N)cc3)C(C(=O)O)=C[C@H]2CC2CCCC2)cc1	inconclusive: 56.2 µM [inhibitor, partial curve, poor fit]	
Cc1ccc(-c2ccc(CCC(=O)O)n2-c2ccc(C)c(Cl)c2)cc1	inconclusive: 79.4 µM [inhibitor, partial curve, poor fit]	
C=CCn1c(SCc2ccc(C(=O)O)cc2)nc2sc(C)c(C)c2c1=O	inconclusive: 89.1 µM [inhibitor, single point]	
CCOC(=O)c1c(NC(=O)C2(C)Cc3ccccc3C(=O)O2)sc2c1CCCC2 (stereo not given)	active: 79.4 µM	
CC(=O)Nc1ccc(S(=O)(=O)N[C@@H](C)C(=O)N2CCN(c3ccccn3)CC2)cc1	inconclusive: 63.1 µM [inhibitor, partial curve, poor fit]	
COc1ccc(NC(=O)N2CCN(S(C)(=O)=O)CC2)cc1	inconclusive: 79.4 µM [inhibitor, single point]	
CCOC(=O)c1c(-c2ccc(C)cc2)csc1NC(=O)C1CC=CCC1C(=O)O (stereo not given)	inconclusive: 89.1 µM [inhibitor, single point]	
O=C(COC(=O)c1cc(S(=O)(=O)N2CCc3ccccc3C2)ccc1Cl)NCc1ccco1	inconclusive: 50.1 µM [inhibitor, partial curve, poor fit]	
Cc1ccccc1Nc1c(-c2c[nH]c3ccccc23)nc2cccc(C)n12		inactive: -10.5%
O=[N+]([O-])c1ccc(-[n+]2ccc3ccccc3c2)c([N+](=O)[O-])c1	active: 79.4 µM	
CC(C)Nc1ccc(C(CC(N)=O)NC(=O)c2ccccc2)cc1[N+](=O)[O-] (stereo not given)	inconclusive: 79.4 µM [inhibitor, partial curve, poor fit]	
Clc1ccccc1-c1nc(-n2ccnc2)c2ccccc2n1	active: 56.2 µM	
Cc1c(C(=O)O)cccc1-c1ccc(/C=N/Nc2ccc(Br)cc2)o1	inconclusive: 100 µM [inhibitor, partial curve, poor fit]	
CCOC(=O)c1ccc(NC(=O)CSc2ncc(S(=O)(=O)c3ccc(C)c(Cl)c3)c(=O)[nH]2)cc1		inactive: 5.16%
CCC1C(=O)N=C(SCC(=O)Nc2ccc(Br)cn2)NC1=O (stereo not given)	inconclusive: 12.6 µM [inhibitor, partial curve, poor fit]	
O=C1C2CCCCN2C(=O)N1CCN1CCN(c2ccc([N+](=O)[O-])cc2)CC1 (stereo not given)	inconclusive: 100 µM [inhibitor, partial curve, poor fit]	
CC(=O)Oc1cccc(/C=C2\C=C(c3ccc(C)cc3)OC2=O)c1	inconclusive: 56.2 µM [inhibitor, partial curve, poor fit]	
Cc1ccc(C)c(N2CCN(S(=O)(=O)c3ccc4c(c3)NC(=O)CO4)CC2)c1		inactive: -19.6%
COc1cc2c(cc1OC)C(c1cc(Br)ccc1F)N(C(=O)CCl)CC2 (stereo not given)	inconclusive: 89.1 µM [inhibitor, single point]	
CCN(CC)c1ccc(NC(=O)CCc2c(C)nc3ncnn3c2C)c(C)c1		inactive: -7.53%
CCOC(=O)c1c(NC(=O)c2cc3n(n2)C(C(F)(F)F)CC(c2cccs2)N3)sc(C)c1C (stereo not given)		inactive: -7.06%
O=C(c1cn(-c2ccccc2)nc1-c1cccs1)N1CCN(c2ccccc2)CC1		inactive: 1.07%

SMILES	Potency	max response, negative = inhibition
CCc1ccccc1NC(=O)CN(C)Cc1c(O)ccc2ccccc12	inconclusive: 56.2 µM [inhibitor, partial curve, poor fit]	
CCCCC(=O)NC(Nc1sc2c(c1C(N)=O)CCCC2)(C(=O)OCC)C(F)(F)F (stereo not given)	inconclusive: 100 µM [inhibitor, single point]	
COc1ccc(NC(=O)N(C)C[C@H]2Oc3ccc(NC(=O)Cc4ccccc4)cc3CC(=O)N([C@H](C)CO)C[C@H]2C)cc1	inconclusive: 100 µM [inhibitor, single point]	
Fc1cccc(C[n+]2csc3ccccc32)c1	active: 31.6 µM	
COc1cc(/C=C/C(=O)O)cc(Br)c1O		inactive: 18.4%
CC(=O)c1ccc(NC(=O)c2ccc3nc(-c4ccco4)c(-c4ccco4)nc3c2)cc1	inconclusive: 56.2 µM [inhibitor, partial curve, poor fit]	
COc1ccc2c(CCNC(=O)c3ccco3)c[nH]c2c1		inactive: 11%
O=C(NC(=S)Nc1ccc(NC(=O)c2cccs2)cc1)c1ccco1	inconclusive: 35.5 µM [inhibitor, partial curve]	
O=c1/c(=C/c2cccc3ccccc23)sc2ncnn12	inconclusive: 8.91 µM [inhibitor, partial curve, poor fit]	
CCOC(=O)C1(CCCc2ccccc2)CCN(C(=O)COC)CC1		inactive: 0.352%
O=C1C=C(c2cccc3c2sc2ccccc23)C[C@@H](c2ccc(F)cc2)C1	inconclusive: 31.6 µM [inhibitor, partial curve, poor fit]	
CC(=O)c1ccc(NC(=S)Nc2cccc3ccccc23)cc1	inconclusive: 79.4 µM [inhibitor, single point]	
COc1ccc2cc3cc(C(=O)NCCN4CCN(Cc5ccccc5)CC4)oc3nc2c1		inactive: 20.4%
CCOC(=O)CC1=NN(c2ccccc2)C(=O)/C1=C\c1ccc(N(C)C)cc1	inconclusive: 3.98 µM [inhibitor, partial curve, poor fit]	
CNc1nc(Cl)c(SC)c(NCc2cccc(OC)c2)n1	inconclusive: 39.8 µM [inhibitor, single point]	
CCOc1ccc2nc(Cl)c(/C=C/C(=O)c3ccco3)cc2c1	inconclusive: 56.2 µM [inhibitor, partial curve, poor fit]	
Cc1ccc(N2CCN(C(=S)c3ccc(-c4cccc([N+](=O)[O-])c4)o3)CC2)cc1	inconclusive: 56.2 µM [inhibitor, partial curve, poor fit]	
COc1ccc(-c2cc(=Nc3ccc(C)cc3)c3ccccc3o2)cc1		inactive: -16.6%
CCCN(CCC)C(=O)CSc1c2c(nc3ccc(Cl)cc13)CCCC2	inconclusive: 89.1 µM [inhibitor, single point]	
CC(=O)[C@]1(O)Cc2c(O)c3c(c(O)c2[C@@H](O[C@H]2C[C@H](N)[C@H](O)[C@H](C)O2)C1)C(=O)c1ccccc1C3=O	inconclusive: 8.91 µM [inhibitor, full curve] and inconclusive: 6.31 µM [inhibitor, full curve, poor fit]	
Cc1cccc(NC(=O)CCN2CCN(C/C=C/c3ccccc3)CC2)c1		inactive: 17.7%
